Where two headings read alike, the source gives them in different places. These are yes or no findings as the source states them, for the method shown. Binding seen in cells or lysates may run through a third protein. Some entries that bind do so weakly or less than the wild type.
Tests used:
Assay in all cases: co-IP; bone marrow-derived macrophages resting, treated with PAF (10^-7 M) or with apoptotic thymocytes (10 per macrophage) for 20 min; lysed on ice in HEPES buffer with 1 mM CaCl2, 1 mM MgCl2, 1% Triton X-100; lysates incubated overnight at 4°C with rabbit anti-PAFR or mouse IgA anti-CD36, protein A- or protein G-Sepharose; immunoblot for PAFR, CD36 or flotillin-1
[1] = target: CD36 (mouse (endogenous in bone marrow-derived macrophages)) (UniProt Q08857)
[2] = target: platelet-activating factor receptor (mouse (endogenous in bone marrow-derived macrophages)) (UniProt Q62035)
[3] = target: CD36 (mouse (endogenous in bone marrow-derived macrophages)) (UniProt Q08857); remark: listed apart in the source

By UniProt entry, the sequences of proteins in these tests, tags left out.
UniProt Q08857: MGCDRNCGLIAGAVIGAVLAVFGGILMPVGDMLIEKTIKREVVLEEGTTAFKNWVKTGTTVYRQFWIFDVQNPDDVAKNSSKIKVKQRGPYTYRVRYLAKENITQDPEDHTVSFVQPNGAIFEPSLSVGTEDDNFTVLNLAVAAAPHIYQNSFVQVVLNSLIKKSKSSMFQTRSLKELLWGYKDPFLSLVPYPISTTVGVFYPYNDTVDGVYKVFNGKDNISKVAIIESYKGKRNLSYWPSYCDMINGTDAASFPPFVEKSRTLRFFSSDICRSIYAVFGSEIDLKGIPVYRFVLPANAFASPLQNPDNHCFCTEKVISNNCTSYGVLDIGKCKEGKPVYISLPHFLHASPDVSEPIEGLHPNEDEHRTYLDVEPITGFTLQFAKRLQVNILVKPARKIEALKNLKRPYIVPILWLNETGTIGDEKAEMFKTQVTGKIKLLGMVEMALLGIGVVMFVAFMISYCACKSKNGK
UniProt Q62035: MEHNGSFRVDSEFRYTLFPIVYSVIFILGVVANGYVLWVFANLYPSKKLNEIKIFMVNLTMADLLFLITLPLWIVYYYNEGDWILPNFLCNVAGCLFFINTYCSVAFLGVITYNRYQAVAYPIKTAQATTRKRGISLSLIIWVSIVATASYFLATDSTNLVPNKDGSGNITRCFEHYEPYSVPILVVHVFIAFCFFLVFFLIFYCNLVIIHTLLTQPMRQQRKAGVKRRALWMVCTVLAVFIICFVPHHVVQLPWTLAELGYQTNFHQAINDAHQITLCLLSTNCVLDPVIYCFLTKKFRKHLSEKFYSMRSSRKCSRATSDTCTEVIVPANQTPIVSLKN

Molecule	binding [1]	binding [2]	binding [3]
platelet-activating factor receptor (from UniProt Q62035 1-341)	binds	–	–
flotillin-1 (protein, UniProt O08917 1-428) MFFTCGPNEAMVVSGFCRSPPVMVAGGRVFVLPCIQQIQRISLNTLTLNVKSEKVYTRHGVPISVTGIAQVKIQGQNKEMLAAACQMFLGKTEAEIAHIALETLEGHQRAIMAHMTVEEIYKDRQKFSEQVFKVASSDLVNMGISVVSYTLKDIHDDQDYLHSLGKARTAQVQKDARIGEAEAKRDAGIREAKAKQEKVSAQCLSEIEMAKAQRDYELKKATYDIEVNTRRAQADLAYQLQVAKTKQQIEEQRVQVQVVERAQQVAVQEQEIARREKELEARVRKPAEAERYRLERLAEAEKAQLIMQAEAEAESVRMRGEAEAFAIGARARAEAEQMAKKAEAFQMYQEAAQLDMLLEKLPQVAEEISGPLTSANKITLVSSGSGTMGAAKVTGEVLDILSRLPESVERLTGVSISQVNHNKPLRTA	–	binds	binds
